# Values quoted from earlier work, collected in patent publication US20170000908A1, “A MICELLAR PARTICLE” (AGENCY FOR SCIENCE, TECHNOLOGY AND RESEARCH, priority 2013, published 2017).
# At least one structure is not confirmed: it was looked up by name or label, or the drawing left a doubt.
# Settings: Ethanol; cited from earlier work
compound,measurement,value
O=C1OC2(c3ccc(O)cc3Oc3cc(O)ccc32)c2ccccc21 [fluorescein],Quantum yield (QY) of fluorescence standard solution,0.79
